Data reported in PMC8036907.
No constants are given. Whether binding was seen depends on the method and setting. Binding seen in cells or lysates may run through a third protein. These calls come from enrichment with a bait or labelling near it, and not all partners need be listed.

The chains behind the UniProt entries cited, without tags or fusion partners. Where a name states a change or a piece, a line headed by the entry shows the natural chain unless it says otherwise.
UniProt Q15554: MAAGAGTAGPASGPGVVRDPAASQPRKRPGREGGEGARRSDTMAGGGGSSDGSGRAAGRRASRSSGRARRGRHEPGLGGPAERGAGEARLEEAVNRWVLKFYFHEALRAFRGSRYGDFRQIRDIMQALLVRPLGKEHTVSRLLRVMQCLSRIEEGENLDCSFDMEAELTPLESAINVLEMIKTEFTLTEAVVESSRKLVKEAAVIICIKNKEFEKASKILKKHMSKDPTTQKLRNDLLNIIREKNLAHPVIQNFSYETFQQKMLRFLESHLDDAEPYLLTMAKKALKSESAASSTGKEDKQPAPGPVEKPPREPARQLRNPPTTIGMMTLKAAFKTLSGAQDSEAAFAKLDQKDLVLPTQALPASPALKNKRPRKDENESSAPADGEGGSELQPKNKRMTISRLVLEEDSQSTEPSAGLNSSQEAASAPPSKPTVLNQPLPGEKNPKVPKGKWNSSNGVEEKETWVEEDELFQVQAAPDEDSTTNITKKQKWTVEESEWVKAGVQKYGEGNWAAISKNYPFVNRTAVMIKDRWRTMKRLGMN
UniProt O70133: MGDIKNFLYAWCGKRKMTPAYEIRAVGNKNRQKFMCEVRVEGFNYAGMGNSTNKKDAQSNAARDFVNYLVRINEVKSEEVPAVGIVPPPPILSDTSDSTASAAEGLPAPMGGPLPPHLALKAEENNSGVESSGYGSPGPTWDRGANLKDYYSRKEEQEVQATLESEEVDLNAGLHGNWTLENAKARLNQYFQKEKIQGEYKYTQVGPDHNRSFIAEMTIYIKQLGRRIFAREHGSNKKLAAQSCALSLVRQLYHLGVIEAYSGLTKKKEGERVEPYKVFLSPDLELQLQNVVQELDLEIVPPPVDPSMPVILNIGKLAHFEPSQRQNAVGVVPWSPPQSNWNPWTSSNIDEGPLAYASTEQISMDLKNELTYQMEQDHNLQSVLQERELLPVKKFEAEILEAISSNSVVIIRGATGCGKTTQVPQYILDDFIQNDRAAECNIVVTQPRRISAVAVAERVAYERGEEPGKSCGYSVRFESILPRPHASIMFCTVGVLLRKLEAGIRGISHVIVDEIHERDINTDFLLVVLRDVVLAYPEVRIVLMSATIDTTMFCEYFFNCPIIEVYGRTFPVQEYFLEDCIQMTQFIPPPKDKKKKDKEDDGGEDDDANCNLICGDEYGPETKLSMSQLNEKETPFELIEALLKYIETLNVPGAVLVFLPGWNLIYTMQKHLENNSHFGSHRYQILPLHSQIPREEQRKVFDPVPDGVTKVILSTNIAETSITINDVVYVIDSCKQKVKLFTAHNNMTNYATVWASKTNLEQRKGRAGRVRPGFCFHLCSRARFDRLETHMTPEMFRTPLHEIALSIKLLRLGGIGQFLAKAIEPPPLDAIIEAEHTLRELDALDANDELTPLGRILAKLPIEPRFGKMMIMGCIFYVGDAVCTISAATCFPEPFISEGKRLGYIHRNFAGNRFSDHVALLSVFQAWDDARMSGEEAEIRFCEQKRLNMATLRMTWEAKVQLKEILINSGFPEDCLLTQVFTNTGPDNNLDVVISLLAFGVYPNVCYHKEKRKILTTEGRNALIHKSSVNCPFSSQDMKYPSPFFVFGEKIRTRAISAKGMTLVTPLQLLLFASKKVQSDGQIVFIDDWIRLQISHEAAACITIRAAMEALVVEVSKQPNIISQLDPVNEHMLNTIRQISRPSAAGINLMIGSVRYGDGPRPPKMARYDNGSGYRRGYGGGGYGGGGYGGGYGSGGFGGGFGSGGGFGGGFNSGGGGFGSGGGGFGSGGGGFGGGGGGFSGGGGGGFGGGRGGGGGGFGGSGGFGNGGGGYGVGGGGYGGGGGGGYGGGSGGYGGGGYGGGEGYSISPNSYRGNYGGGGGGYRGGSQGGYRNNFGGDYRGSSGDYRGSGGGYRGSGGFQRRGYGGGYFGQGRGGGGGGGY
UniProt E9PV04: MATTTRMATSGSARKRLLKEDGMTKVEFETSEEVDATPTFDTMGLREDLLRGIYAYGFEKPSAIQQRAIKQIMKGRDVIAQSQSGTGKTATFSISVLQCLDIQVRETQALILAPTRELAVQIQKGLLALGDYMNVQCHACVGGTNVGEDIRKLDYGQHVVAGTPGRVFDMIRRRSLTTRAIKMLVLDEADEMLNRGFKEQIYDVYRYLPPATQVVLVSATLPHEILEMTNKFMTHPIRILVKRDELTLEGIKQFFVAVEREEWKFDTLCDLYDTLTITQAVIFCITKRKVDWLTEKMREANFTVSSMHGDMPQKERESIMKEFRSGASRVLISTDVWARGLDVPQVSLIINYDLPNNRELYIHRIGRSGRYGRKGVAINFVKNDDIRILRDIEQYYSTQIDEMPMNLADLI
UniProt O88569: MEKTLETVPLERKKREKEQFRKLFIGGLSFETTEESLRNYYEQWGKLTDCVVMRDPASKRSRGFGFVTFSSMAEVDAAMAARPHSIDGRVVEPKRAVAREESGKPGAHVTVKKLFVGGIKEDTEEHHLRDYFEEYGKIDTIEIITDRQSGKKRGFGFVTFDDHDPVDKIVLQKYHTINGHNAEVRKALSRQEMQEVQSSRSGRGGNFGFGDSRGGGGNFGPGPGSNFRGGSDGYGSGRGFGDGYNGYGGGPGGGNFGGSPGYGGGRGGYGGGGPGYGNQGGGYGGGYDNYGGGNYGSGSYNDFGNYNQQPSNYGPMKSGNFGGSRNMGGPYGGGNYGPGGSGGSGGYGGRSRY
UniProt Q8BG05: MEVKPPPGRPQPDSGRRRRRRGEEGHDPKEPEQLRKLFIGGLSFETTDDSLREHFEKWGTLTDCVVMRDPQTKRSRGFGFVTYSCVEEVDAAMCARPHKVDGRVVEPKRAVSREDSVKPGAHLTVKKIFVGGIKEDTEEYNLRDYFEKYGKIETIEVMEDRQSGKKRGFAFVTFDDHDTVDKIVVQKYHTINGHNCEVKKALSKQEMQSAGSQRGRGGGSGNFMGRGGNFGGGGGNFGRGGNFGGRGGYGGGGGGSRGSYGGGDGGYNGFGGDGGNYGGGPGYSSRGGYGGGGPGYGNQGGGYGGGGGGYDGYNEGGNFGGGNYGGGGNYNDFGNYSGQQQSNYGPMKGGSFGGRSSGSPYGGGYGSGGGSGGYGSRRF
UniProt Q99KP6: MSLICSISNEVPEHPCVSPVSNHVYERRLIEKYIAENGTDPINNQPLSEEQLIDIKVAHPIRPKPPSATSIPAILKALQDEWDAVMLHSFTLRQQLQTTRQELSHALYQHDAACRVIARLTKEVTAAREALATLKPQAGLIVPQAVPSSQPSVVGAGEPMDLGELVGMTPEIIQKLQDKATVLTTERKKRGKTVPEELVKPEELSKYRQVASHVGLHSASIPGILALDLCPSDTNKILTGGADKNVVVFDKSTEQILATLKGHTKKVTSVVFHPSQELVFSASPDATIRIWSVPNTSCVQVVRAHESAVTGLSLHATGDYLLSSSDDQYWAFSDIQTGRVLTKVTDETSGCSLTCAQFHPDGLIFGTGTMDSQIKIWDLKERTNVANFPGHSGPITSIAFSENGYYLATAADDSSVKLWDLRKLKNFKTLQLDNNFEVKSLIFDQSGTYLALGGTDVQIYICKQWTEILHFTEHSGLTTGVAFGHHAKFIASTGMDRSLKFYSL
UniProt Q6PDM2: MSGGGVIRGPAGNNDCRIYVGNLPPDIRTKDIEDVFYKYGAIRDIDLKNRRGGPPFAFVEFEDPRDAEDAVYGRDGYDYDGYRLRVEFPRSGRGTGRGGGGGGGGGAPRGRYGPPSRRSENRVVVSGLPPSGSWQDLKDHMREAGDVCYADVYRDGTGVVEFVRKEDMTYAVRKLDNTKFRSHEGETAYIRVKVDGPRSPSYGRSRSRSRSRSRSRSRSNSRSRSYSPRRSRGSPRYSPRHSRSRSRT
UniProt P62320: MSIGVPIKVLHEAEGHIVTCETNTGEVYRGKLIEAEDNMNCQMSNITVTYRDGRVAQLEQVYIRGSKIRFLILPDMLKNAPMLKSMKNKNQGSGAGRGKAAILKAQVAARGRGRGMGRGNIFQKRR
UniProt Q6P4T2: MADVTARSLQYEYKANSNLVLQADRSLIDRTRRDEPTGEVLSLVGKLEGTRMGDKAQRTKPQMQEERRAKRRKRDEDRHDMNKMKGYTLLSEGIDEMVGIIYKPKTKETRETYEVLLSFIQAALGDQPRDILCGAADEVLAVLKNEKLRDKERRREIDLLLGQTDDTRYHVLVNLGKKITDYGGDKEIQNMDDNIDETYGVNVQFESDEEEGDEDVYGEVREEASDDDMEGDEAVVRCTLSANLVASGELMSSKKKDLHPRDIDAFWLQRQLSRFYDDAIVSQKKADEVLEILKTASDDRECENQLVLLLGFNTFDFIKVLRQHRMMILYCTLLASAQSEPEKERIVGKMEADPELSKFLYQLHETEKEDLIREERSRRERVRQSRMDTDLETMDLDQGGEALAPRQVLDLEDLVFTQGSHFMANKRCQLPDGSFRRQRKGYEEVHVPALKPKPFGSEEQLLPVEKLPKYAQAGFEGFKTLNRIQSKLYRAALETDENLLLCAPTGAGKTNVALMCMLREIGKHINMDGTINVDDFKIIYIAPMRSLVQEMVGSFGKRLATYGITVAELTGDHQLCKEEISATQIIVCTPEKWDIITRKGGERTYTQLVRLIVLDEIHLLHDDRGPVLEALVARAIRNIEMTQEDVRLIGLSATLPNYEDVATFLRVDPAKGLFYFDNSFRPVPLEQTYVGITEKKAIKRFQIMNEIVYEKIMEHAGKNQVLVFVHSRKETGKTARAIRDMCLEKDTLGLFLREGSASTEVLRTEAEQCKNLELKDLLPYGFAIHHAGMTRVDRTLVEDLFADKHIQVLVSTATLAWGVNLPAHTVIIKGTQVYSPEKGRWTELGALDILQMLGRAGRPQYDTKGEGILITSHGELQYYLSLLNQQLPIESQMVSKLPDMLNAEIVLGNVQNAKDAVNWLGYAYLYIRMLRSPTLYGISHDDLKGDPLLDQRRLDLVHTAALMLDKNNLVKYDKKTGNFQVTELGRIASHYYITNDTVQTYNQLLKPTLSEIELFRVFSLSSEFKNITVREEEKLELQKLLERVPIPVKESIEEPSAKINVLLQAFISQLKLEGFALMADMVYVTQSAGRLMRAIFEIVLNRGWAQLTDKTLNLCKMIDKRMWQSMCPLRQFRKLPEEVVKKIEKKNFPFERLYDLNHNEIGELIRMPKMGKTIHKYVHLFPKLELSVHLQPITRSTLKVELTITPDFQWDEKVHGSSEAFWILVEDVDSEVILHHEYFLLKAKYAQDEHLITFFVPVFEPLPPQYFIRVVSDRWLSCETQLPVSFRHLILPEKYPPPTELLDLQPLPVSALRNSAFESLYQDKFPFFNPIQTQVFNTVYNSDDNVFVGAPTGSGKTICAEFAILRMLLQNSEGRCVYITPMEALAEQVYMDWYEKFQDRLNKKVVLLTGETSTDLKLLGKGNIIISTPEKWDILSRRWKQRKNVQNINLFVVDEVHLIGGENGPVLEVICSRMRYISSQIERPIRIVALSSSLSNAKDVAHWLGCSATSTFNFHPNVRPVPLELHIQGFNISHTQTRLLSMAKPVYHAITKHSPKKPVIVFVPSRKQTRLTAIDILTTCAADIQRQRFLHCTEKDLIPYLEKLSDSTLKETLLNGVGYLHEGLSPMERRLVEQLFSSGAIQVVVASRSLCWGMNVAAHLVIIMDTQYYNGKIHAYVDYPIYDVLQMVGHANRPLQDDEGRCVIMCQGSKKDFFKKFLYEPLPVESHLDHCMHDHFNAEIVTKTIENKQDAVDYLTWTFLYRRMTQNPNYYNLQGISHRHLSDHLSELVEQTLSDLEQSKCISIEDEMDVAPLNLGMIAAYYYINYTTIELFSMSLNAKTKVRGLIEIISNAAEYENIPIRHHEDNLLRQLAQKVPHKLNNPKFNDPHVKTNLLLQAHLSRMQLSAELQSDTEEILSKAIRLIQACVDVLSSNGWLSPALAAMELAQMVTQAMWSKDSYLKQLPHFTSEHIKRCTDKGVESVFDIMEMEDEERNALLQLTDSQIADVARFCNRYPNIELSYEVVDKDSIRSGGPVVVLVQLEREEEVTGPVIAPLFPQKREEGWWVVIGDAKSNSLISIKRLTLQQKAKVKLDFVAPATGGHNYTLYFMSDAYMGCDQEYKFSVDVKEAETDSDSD
UniProt Q921F2: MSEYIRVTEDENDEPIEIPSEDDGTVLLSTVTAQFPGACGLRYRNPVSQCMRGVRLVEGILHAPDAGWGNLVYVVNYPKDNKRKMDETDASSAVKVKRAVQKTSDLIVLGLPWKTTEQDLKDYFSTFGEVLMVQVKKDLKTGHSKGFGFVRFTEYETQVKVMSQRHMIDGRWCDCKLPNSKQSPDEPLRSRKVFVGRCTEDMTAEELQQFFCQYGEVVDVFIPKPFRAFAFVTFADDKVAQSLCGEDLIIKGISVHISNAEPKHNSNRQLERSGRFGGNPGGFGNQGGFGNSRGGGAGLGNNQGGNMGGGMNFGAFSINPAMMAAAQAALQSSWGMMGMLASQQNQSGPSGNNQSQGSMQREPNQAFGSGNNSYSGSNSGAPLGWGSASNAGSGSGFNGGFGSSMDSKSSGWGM

B1: Non-POU domain-containing octamer-binding protein (protein, UniProt Q99K48 1-473)
chain: MQSNKAFNLEKQNHTPRKHHQHHHQQHHQQQQQQQQQQPPPPIPANGQQASSQNEGLTIDLKNFRKPGEKTFTQRSRLFVGNLPPDITEEEMRKLFEKYGKAGEVFIHKDKGFGFIRLETRTLAEIAKVELDNMPLRGKQLRVRFACHSASLTVRNLPQYVSNELLEEAFSVFGQVERAVVIVDDRGRPSGKGIVEFSGKPAARKALDRCSEGSFLLTTFPRPVTVEPMDQLDDEEGLPEKLVIKNQQFHKEREQPPRFAQPGSFEYEYAMRWKALIEMEKQQQDQVDRNIKEAREKLEMEMEAARHEHQVMLMRQDLMRRQEELRRMEELHNQEVQKRKQLELRQEEERRRREEEMRRQQEEMMRRQQEGFKGTFPDAREQEIRMGQMAMGGAMGINNRGAMPPAPVPPGTPAPPGPATMMPDGTLGLTPPTTERFGQAATMEGIGAIGGTPPAFNRPAPGAEFAPNKRRRY
B2: H/ACA ribonucleoprotein complex subunit DKC1 (protein, UniProt Q9ESX5 1-509)
chain: MADAEVITFPKKHKKKKDRKPLQEDDVAEIQHAEEFLIKPESKVAQLDTSQWPLLLKNFDKLNVRTAHYTPLPCGSNPLKREIGDYIRTGFINLDKPSNPSSHEVVAWIRRILRVEKTGHSGTLDPKVTGCLIVCIERATRLVKSQQSAGKEYVGIVRLHNAIEGGTQLSRALETLTGALFQRPPLIAAVKRQLRVRTIYESKMIEYDPERRLGIFWVSCEAGTYIRTLCVHLGLLLGVGGQMQELRRVRSGVMSEKDHMVTMHDVLDAQWLYDNHKDESYLRRVVYPLEKLLTSHKRLVMKDSAVNAICYGAKIMLPGLLRYEDGIEVNQEIVVITTKGEAICMAIALMTTAVISTCDHGIVAKIKRVIMERDTYPRKWGLGPKASQKKMMIKQGLLDKHGKPTDNTPATWKQDYIDYSDSGKNTLVTEAVQAPQLAAEAVNVIKRKRDSESESDETPTVPQLKEKKKKKDKKPKTVLESGGETGDGDNDTTKKKKKKKVKVVEEMSE
B3: Heterogeneous nuclear ribonucleoprotein L (protein, UniProt Q8R081 1-586)
chain: MSRRLLPRAEKRRRRLEQRQQPDEQLRRAGAMVKMAAAGGGGGGGRYYGGGNEGGRAPKRLKTENAGDQHGGGGGGGSGAAGGGGGENYDDPHKTPASPVVHIRGLIDGVVEADLVEALQEFGPISYVVVMPKKRQALVEFEDVLGACNAVNYAADNQIYIAGHPAFVNYSTSQKISRPGDSDDSRSVNSVLLFTILNPIYSITTDVLYTICNPCGPVQRIVIFRKNGVQAMVEFDSVQSAQRAKASLNGADIYSGCCTLKIEYAKPTRLNVFKNDQDTWDYTNPNLSGQGDPGSNPNKRQRQPPLLGDHPAEYGGPHGGYHSHYHDEGYGPPPPHYEGRRMGPPVGGHRRGPSRYGPQYGHPPPPPPPPDYGPHADSPVLMVYGLDQSKMNCDRVFNVFCLYGNVEKVKFMKSKPGAAMVEMADGYAVDRAITHLNNNFMFGQKMNVCVSKQPAIMPGQSYGLEDGSCSYKDFSESRNNRFSTPEQAAKNRIQHPSNVLHFFNAPLEVTEENFFEICDELGVKRPTSVKVFSGKSERSSSGLLEWDSKSDALETLGFLNHYQMKNPNGPYPYTLKLCFSTAQHAS
B4: Splicing factor, proline- and glutamine-rich (protein, UniProt Q8VIJ6 1-699)
chain: MSRDRFRSRGGGGGGFHRRGGGGGRGGLHDFRSPPPGMGLNQNRGPMGPGPGGPKPPLPPPPPHQQQQQPPPQQPPPQQPPPHQQPPPHQPPHQQPPPPPQESKPVVPQGPGSAPGVSSAPPPAVSAPPANPPTTGAPPGPGPTPTPPPAVPSTAPGPPPPSTPSSGVSTTPPQTGGPPPPPAGGAGPGPKPGPGPGGPKGGKMPGGPKPGGGPGMGAPGGHPKPPHRGGGEPRGGRQHHAPYHQQHHQGPPPGGPGPRTEEKISDSEGFKANLSLLRRPGEKTYTQRCRLFVGNLPADITEDEFKRLFAKYGEPGEVFINKGKGFGFIKLESRALAEIAKAELDDTPMRGRQLRVRFATHAAALSVRNLSPYVSNELLEEAFSQFGPIERAVVIVDDRGRSTGKGIVEFASKPAARKAFERCSEGVFLLTTTPRPVIVEPLEQLDDEDGLPEKLAQKNPMYQKERETPPRFAQHGTFEYEYSQRWKSLDEMEKQQREQVEKNMKDAKDKLESEMEDAYHEHQANLLRQDLMRRQEELRRMEELHSQEMQKRKEMQLRQEEERRRREEEMMIRQREMEEQMRRQREESYSRMGYMDPRERDMRMGGGGTMNMGDPYGSGGQKFPPLGGGGGIGYEANPGVPPATMSGSMMGSDMRTERFGQGGAGPVGGQGPRGMGPGTPAGYGRGREEYEGPNKKPRF
B5: DNA topoisomerase I (enzyme, UniProt Q04750 1-767)
chain: MSGDHLHNDSQIEADFRLNDSHKHKDKHKDREHRHKEHKKDKDKDREKSKHSNSEHKDSEKKHKEKEKTKHKDGSSEKHKDKHKDRDKERRKEEKIRAAGDAKIKKEKENGFSSPPRIKDEPEDDGYFAPPKEDIKPLKRLRDEDDADYKPKKIKTEDIKKEKKRKSEEEEDGKLKKPKNKDKDKKVAEPDNKKKKPKKEEEQKWKWWEEERYPEGIKWKFLEHKGPVFAPPYEPLPESVKFYYDGKVMKLSPKAEEVATFFAKMLDHEYTTKEIFRKNFFKDWRKEMTNDEKNTITNLSKCDFTQMSQYFKAQSEARKQMSKEEKLKIKEENEKLLKEYGFCVMDNHRERIANFKIEPPGLFRGRGNHPKMGMLKRRIMPEDIIINCSKDAKVPSPPPGHKWKEVRHDNKVTWLVSWTENIQGSIKYIMLNPSSRIKGEKDWQKYETARRLKKCVDKIRNQYREDWKSKEMKVRQRAVALYFIDKLALRAGNEKEEGETADTVGCCSLRVEHINLHPELDGQEYVVEFDFPGKDSIRYYNKVPVEKRVFKNLQLFMENKQPEDDLFDRLNTGILNKHLQDLMEGLTAKVFRTYNASITLQQQLKELTAPDENVPAKILSYNRANRAVAILCNHQRAPPKTFEKSMMNLQSKIDAKKDQLADARRDLKSAKADAKVMKDAKTKKVVESKKKAVQRLEEQLMKLEVQATDREENKQIALGTSKLNYLDPRITVAWCKKWGVPIEKIYNKTQREKFAWAIDMTDEDYEF
B6: rRNA 2′-O-methyltransferase fibrillarin (protein, UniProt P35550 1-327)
chain: MKPGFSPRGGGFGGRGGFGDRGGRGGGRGGRGGFGGGRGGFGGGGRGRGGGGGGFRGRGGGGGRGGGFQSGGNRGRGGGRGGKRGNQSGKNVMVEPHRHEGVFICRGKEDALVTKNLVPGESVYGEKRVSISEGDDKIEYRAWNPFRSKLAAAILGGVDQIHIKPGAKVLYLGAASGTTVSHVSDIVGPDGLVYAVEFSHRSGRDLINLAKKRTNIIPVIEDARHPHKYRMLIAMVDVIFADVAQPDQTRIVALNAHTFLRNGGHFVISIKANCIDSTASAEAVFASEVKKMQQENMKPQEQLTLEPYERDHAVVVGVYRPPPKVKN

These molecules were tested against recombinant protein corresponding to udTRF2 (the long linker region of TRF2) (UniProt Q15554) (assay: affinity purification with mass spectrometry; anti-udTRF2 antibodies on protein A Sepharose loaded with an excess of recombinant udTRF2, then mouse liver nuclear extract (DNase/RNase treated); bound proteins digested with trypsin and identified by LC-MALDI; controls: antibody only, beads only; only the target purified).

Row | binding | Molecule
1 | binds | ATP-dependent RNA helicase A (DHX9) (from UniProt O70133 1-1380)
2 | binds | Eukaryotic translation initiation factor 4A3-like 1 (from UniProt E9PV04 1-411)
3 | binds | Heterogeneous nuclear ribonucleoprotein A2/B1 (from UniProt O88569 1-353)
4 | binds | Heterogeneous nuclear ribonucleoprotein A3 (from UniProt Q8BG05 1-379)
5 | binds | Heterogeneous nuclear ribonucleoprotein K (from UniProt P61979 1-463)
6 | binds | Pre-mRNA processing factor 19 (from UniProt Q99KP6 1-504)
7 | binds | Serine/arginine-rich splicing factor 1 (from UniProt Q6PDM2 1-248)
8 | binds | Small nuclear ribonucleoprotein Sm D3 (from UniProt P62320 1-126)
9 | binds | Small nuclear ribonucleoprotein U5 subunit 200 (from UniProt Q6P4T2 1-2136)
10 | binds | TAR DNA-binding protein 43 (from UniProt Q921F2 1-414)
11 | binds | B1
12 | binds | B2
13 | binds | B3
14 | binds | B4
15 | binds | B5
16 | binds | B6
